Assay results as given in publication PMC7982521, “Studies on the Changes of Pharmacokinetics Behaviors of Phytochemicals and the Influence on Endogenous Metabolites After the Combination of Radix Bupleuri and Radix Paeoniae Alba Based on Multi-Component Pharmacokinetics and Metabolomics” (Frontiers in Pharmacology, 2021).

Test system: endogenous metabolites
Experiment: Metabolomics: dynamic response of endogenous metabolites in rat plasma after oral RB-RPA (UPLC-HRMS, PCA/PLS-DA/OPLS-DA, relative distance)
Format: in vivo, Sprague-Dawley rats
Conditions: mean ± SD, n = 6

With `NC(=O)CCC(N)C(=O)O` (racemic) [DL-Glutamine] the “level of endogenous metabolite normalized by IS (glycyrrhizin)” value (0.083 h after oral RB-RPA) was 0.144±0.023, the “level of endogenous metabolite normalized by IS (glycyrrhizin)” value (0.5 h after oral RB-RPA) was 0.165±0.071 and the “level of endogenous metabolite normalized by IS (glycyrrhizin)” value (0.75 h after oral RB-RPA) was 0.074±0.022. For the same compound, the “level of endogenous metabolite normalized by IS (glycyrrhizin)” value (1 h after oral RB-RPA) was 0.061±0.008, the “level of endogenous metabolite normalized by IS (glycyrrhizin)” value (1.5 h after oral RB-RPA) was 0.066±0.012 and the “level of endogenous metabolite normalized by IS (glycyrrhizin)” value (3 h after oral RB-RPA) was 0.048±0.009. The “level of endogenous metabolite normalized by IS (glycyrrhizin)” value (5 h after oral RB-RPA) was 0.131±0.097, the “level of endogenous metabolite normalized by IS (glycyrrhizin)” value (8 h after oral RB-RPA) was 0.033±0.006 and the “level of endogenous metabolite normalized by IS (glycyrrhizin)” value (12 h after oral RB-RPA) was 0.061±0.009. The “level of endogenous metabolite normalized by IS (glycyrrhizin)” value (24 h after oral RB-RPA) was 0.085±0.012.

In the case of `NC(Cc1cnc[nH]1)C(=O)O` (racemic) [DL-Histidine], the “level of endogenous metabolite normalized by IS (glycyrrhizin)” value (0.083 h after oral RB-RPA) is reported as 0.291±0.036, the “level of endogenous metabolite normalized by IS (glycyrrhizin)” value (0.5 h after oral RB-RPA) is reported as 0.312±0.088 and the “level of endogenous metabolite normalized by IS (glycyrrhizin)” value (0.75 h after oral RB-RPA) is reported as 0.201±0.092. For the same compound, the “level of endogenous metabolite normalized by IS (glycyrrhizin)” value (1 h after oral RB-RPA) was 0.365±0.076, the “level of endogenous metabolite normalized by IS (glycyrrhizin)” value (1.5 h after oral RB-RPA) was 0.292±0.043 and the “level of endogenous metabolite normalized by IS (glycyrrhizin)” value (3 h after oral RB-RPA) was 0.321±0.071. The “level of endogenous metabolite normalized by IS (glycyrrhizin)” value (5 h after oral RB-RPA) was 0.387±0.085, the “level of endogenous metabolite normalized by IS (glycyrrhizin)” value (8 h after oral RB-RPA) was 0.282±0.065 and the “level of endogenous metabolite normalized by IS (glycyrrhizin)” value (12 h after oral RB-RPA) was 0.221±0.083. For the same compound, the “level of endogenous metabolite normalized by IS (glycyrrhizin)” value (24 h after oral RB-RPA) was 0.232±0.095.

`NC(Cc1c[nH]c2ccccc12)C(=O)O` (racemic) [DL-Tryptophan] was tested, and the “level of endogenous metabolite normalized by IS (glycyrrhizin)” value (0.083 h after oral RB-RPA) was 0.018±0.006, the “level of endogenous metabolite normalized by IS (glycyrrhizin)” value (0.5 h after oral RB-RPA) was 0.009±0.002 and the “level of endogenous metabolite normalized by IS (glycyrrhizin)” value (0.75 h after oral RB-RPA) was 0.006±0.003. The “level of endogenous metabolite normalized by IS (glycyrrhizin)” value (1 h after oral RB-RPA) was 0.010±0.005, the “level of endogenous metabolite normalized by IS (glycyrrhizin)” value (1.5 h after oral RB-RPA) was 0.006±0.002 and the “level of endogenous metabolite normalized by IS (glycyrrhizin)” value (3 h after oral RB-RPA) was 0.009±0.003. For the same compound, the “level of endogenous metabolite normalized by IS (glycyrrhizin)” value (5 h after oral RB-RPA) was 0.008±0.001, the “level of endogenous metabolite normalized by IS (glycyrrhizin)” value (8 h after oral RB-RPA) was 0.012±0.004 and the “level of endogenous metabolite normalized by IS (glycyrrhizin)” value (12 h after oral RB-RPA) was 0.008±0.002. The “level of endogenous metabolite normalized by IS (glycyrrhizin)” value (24 h after oral RB-RPA) was 0.014±0.005.

With `C[C@H](CCC(=O)O)[C@H]1CC[C@H]2[C@@H]3[C@H](O)C[C@@H]4C[C@H](O)CC[C@]4(C)[C@H]3C[C@H](O)[C@]12C` [Cholic acid] the “level of endogenous metabolite normalized by IS (glycyrrhizin)” value (0.083 h after oral RB-RPA) was 0.040±0.007, the “level of endogenous metabolite normalized by IS (glycyrrhizin)” value (0.5 h after oral RB-RPA) was 0.031±0.010 and the “level of endogenous metabolite normalized by IS (glycyrrhizin)” value (0.75 h after oral RB-RPA) was 0.028±0.007. The “level of endogenous metabolite normalized by IS (glycyrrhizin)” value (1 h after oral RB-RPA) was 0.021±0.006, the “level of endogenous metabolite normalized by IS (glycyrrhizin)” value (1.5 h after oral RB-RPA) was 0.016±0.003 and the “level of endogenous metabolite normalized by IS (glycyrrhizin)” value (3 h after oral RB-RPA) was 0.019±0.002. For the same compound, the “level of endogenous metabolite normalized by IS (glycyrrhizin)” value (5 h after oral RB-RPA) was 0.025±0.005, the “level of endogenous metabolite normalized by IS (glycyrrhizin)” value (8 h after oral RB-RPA) was 0.029±0.007 and the “level of endogenous metabolite normalized by IS (glycyrrhizin)” value (12 h after oral RB-RPA) was 0.037±0.009. For the same compound, the “level of endogenous metabolite normalized by IS (glycyrrhizin)” value (24 h after oral RB-RPA) was 0.041±0.012.

With `C[N+](C)(C)CCO` [Choline] the “level of endogenous metabolite normalized by IS (glycyrrhizin)” value (0.083 h after oral RB-RPA) was 2.434±0.264, the “level of endogenous metabolite normalized by IS (glycyrrhizin)” value (0.5 h after oral RB-RPA) was 1.432±0.743 and the “level of endogenous metabolite normalized by IS (glycyrrhizin)” value (0.75 h after oral RB-RPA) was 1.954±0.533. The “level of endogenous metabolite normalized by IS (glycyrrhizin)” value (1 h after oral RB-RPA) was 3.481±0.768, the “level of endogenous metabolite normalized by IS (glycyrrhizin)” value (1.5 h after oral RB-RPA) was 3.734±1.059 and the “level of endogenous metabolite normalized by IS (glycyrrhizin)” value (3 h after oral RB-RPA) was 4.066±1.235. For the same compound, the “level of endogenous metabolite normalized by IS (glycyrrhizin)” value (5 h after oral RB-RPA) was 3.893±1.188, the “level of endogenous metabolite normalized by IS (glycyrrhizin)” value (8 h after oral RB-RPA) was 3.622±1.365 and the “level of endogenous metabolite normalized by IS (glycyrrhizin)” value (12 h after oral RB-RPA) was 3.283±0.845. For the same compound, the “level of endogenous metabolite normalized by IS (glycyrrhizin)” value (24 h after oral RB-RPA) was 2.717±0.974.

With `O=C(O)CC(O)(CC(=O)O)C(=O)O` [Citric acid] the “level of endogenous metabolite normalized by IS (glycyrrhizin)” value (0.083 h after oral RB-RPA) was 0.097±0.008, the “level of endogenous metabolite normalized by IS (glycyrrhizin)” value (0.5 h after oral RB-RPA) was 0.088±0.023 and the “level of endogenous metabolite normalized by IS (glycyrrhizin)” value (0.75 h after oral RB-RPA) was 0.079±0.018. The “level of endogenous metabolite normalized by IS (glycyrrhizin)” value (1 h after oral RB-RPA) was 0.066±0.027, the “level of endogenous metabolite normalized by IS (glycyrrhizin)” value (1.5 h after oral RB-RPA) was 0.071±0.010 and the “level of endogenous metabolite normalized by IS (glycyrrhizin)” value (3 h after oral RB-RPA) was 0.050±0.009. The “level of endogenous metabolite normalized by IS (glycyrrhizin)” value (5 h after oral RB-RPA) was 0.047±0.006, the “level of endogenous metabolite normalized by IS (glycyrrhizin)” value (8 h after oral RB-RPA) was 0.069±0.011 and the “level of endogenous metabolite normalized by IS (glycyrrhizin)” value (12 h after oral RB-RPA) was 0.121±0.032. For the same compound, the “level of endogenous metabolite normalized by IS (glycyrrhizin)” value (24 h after oral RB-RPA) was 0.087±0.029.

In the case of `C=C(CC(=O)O)C(=O)O` [Itaconic acid], the “level of endogenous metabolite normalized by IS (glycyrrhizin)” value (0.083 h after oral RB-RPA) is reported as 0.011±0.003, the “level of endogenous metabolite normalized by IS (glycyrrhizin)” value (0.5 h after oral RB-RPA) is reported as 0.015±0.004 and the “level of endogenous metabolite normalized by IS (glycyrrhizin)” value (0.75 h after oral RB-RPA) is reported as 0.019±0.005. For the same compound, the “level of endogenous metabolite normalized by IS (glycyrrhizin)” value (1 h after oral RB-RPA) was 0.024±0.005, the “level of endogenous metabolite normalized by IS (glycyrrhizin)” value (1.5 h after oral RB-RPA) was 0.017±0.007 and the “level of endogenous metabolite normalized by IS (glycyrrhizin)” value (3 h after oral RB-RPA) was 0.020±0.007. The “level of endogenous metabolite normalized by IS (glycyrrhizin)” value (5 h after oral RB-RPA) was 0.016±0.009, the “level of endogenous metabolite normalized by IS (glycyrrhizin)” value (8 h after oral RB-RPA) was 0.014±0.006 and the “level of endogenous metabolite normalized by IS (glycyrrhizin)” value (12 h after oral RB-RPA) was 0.010±0.003. For the same compound, the “level of endogenous metabolite normalized by IS (glycyrrhizin)” value (24 h after oral RB-RPA) was 0.012±0.004.
